Values quoted from earlier work as cited in patent publication US20180171280A1, “CELL CULTURE EXPOSURE SYSTEM (CCES)” (priority 2016, published 2018).
At least one structure is not confirmed: it was looked up by name or label, or the drawing left a doubt.

Conditions: cited from earlier work

For C=CC=C [1,3-Butadiene, 1,3-butadiene], the IARC carcinogen classification is given as “Group 1 known human carcinogen”.
